Values from PubChem BioAssay AID652243 (Drosophila RNAi Screening Center, 2013).

Purpose: 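Knock-downs that decrease or increase androgen receptor reporter signal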 (primary screen)
Cells: Drosophila S2R+ cells
Knock-down reagent: long dsRNA against Drosophila genes
Timing: 72 h (48 h, then 24 h hormone)
Challenge: synthetic androgen R1881 at 10 nM for 24 h
Read-out: 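Per-well raw luminescence of the androgen-driven firefly reporter and of the Renilla control, two replicates each, without normalisation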
Scale: firefly reporter light: higher = more light from androgen-responsive reporter; Renilla control light: higher = more constitutive control signal (cell number, transfection)
Active means: 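Across duplicate plates, a knock-down whose log firefly/Renilla ratio shifted a set fold down or up from the GFP/LacZ control mean was a hit; the downward cut appears as both 1.5 and 3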
Meaning of the calls: active = hit: reporter lowered or raised; inactive = no hit
The screen tested about 24,000 reagents; below is an unselected part of those that have a named target and a result. Of all reagents, 246 (1%) were called active. 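Plates not normalised; calls are printed but the firefly/Renilla ratio behind them is not deposited; fold cut for lowering reported inconsistently.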 Raw values vary from plate to plate and are shown uncorrected. Not stated in the record: the amount of reagent.

gene	dsRNA	firefly reporter light, replicate 1	firefly reporter light, replicate 2	Renilla control light, replicate 1	Renilla control light, replicate 2	Call
PlexA	DRSC17220	1.10e5	1.04e5	5.16e5	4.46e5	inactive
nrv1	DRSC03382	4.85e5	7.07e5	1.43e6	1.72e6	inactive
CG9702	DRSC16540	1.89e5	1.47e5	2.68e6	2.63e6	inactive
GluRIIE	DRSC13431	2.42e5	76972	2.14e5	73797	inactive
GluRIIE	DRSC25745	6.69e5	6.08e5	8.64e5	8.75e5	inactive
GluRIIE	DRSC39086	2.90e5	2.59e5	1.04e6	1.14e6	inactive
Osi20	DRSC12568	1.13e5	1.13e5	2.84e6	2.32e6	inactive
Osi20	DRSC28630	4.17e5	4.02e5	1.04e6	8.51e5	inactive
Prosbeta2R1	DRSC18154	2.56e5	3.33e5	2.13e6	3.55e6	inactive
Xrcc2	DRSC19984	6.70e5	5.27e5	3.37e6	2.81e6	inactive
Xrcc2	DRSC29513	3.87e5	4.96e5	2.61e5	2.61e5	inactive
Ntan1	DRSC07546	85520	1.25e5	1.20e6	1.10e6	inactive
mge	DRSC08721	1.53e5	1.67e5	1.66e6	2.22e6	inactive
Nup93-1	DRSC19344	32334	40278	1.92e5	2.47e5	inactive
CG31265	DRSC15745	96041	95149	1.44e6	1.35e6	inactive
CG31265	DRSC28592	5.58e5	5.11e5	1.64e6	1.60e6	inactive

Continued, starting with the last 2 of the part before.
gene	dsRNA	firefly reporter light, replicate 1	firefly reporter light, replicate 2	Renilla control light, replicate 1	Renilla control light, replicate 2	Call
CG31265	DRSC15745	96041	95149	1.44e6	1.35e6	inactive
CG31265	DRSC28592	5.58e5	5.11e5	1.64e6	1.60e6	inactive
CG7384	DRSC03053	1.09e6	1.22e6	2.09e6	2.56e6	inactive
ninaC	DRSC03579	9.04e5	9.19e5	1.66e6	1.84e6	inactive
ninaC	DRSC29875	8.22e5	2.72e5	1.30e6	5.72e5	inactive
ninaC	DRSC36608					inactive
nxf2	DRSC10403	18003	23177	2.59e5	2.40e5	inactive
nxf2	DRSC26721	2.76e5	2.33e5	6.95e5	7.04e5	inactive
hll	DRSC01944	6.99e5	9.48e5	1.18e6	1.16e6	inactive
CG3529	DRSC10369	8.56e5	4.11e5	1.99e6	1.25e6	inactive
CG3529	DRSC25300	8.17e5	5.88e5	1.14e6	1.23e6	inactive
Ubc87F	DRSC16513	1.62e5	1.62e5	2.80e6	2.71e6	inactive
Ubc87F	DRSC29083	4.18e5	4.66e5	1.37e6	1.42e6	inactive
Liprin-gamma	DRSC04093	4.43e5	4.15e5	3.43e6	4.36e6	inactive
CG17167	DRSC20902	1.55e5	1.58e5	5.40e5	4.42e5	inactive
CG17167	DRSC20903	2.03e5	1.50e5	3.15e5	2.61e5	inactive
Mctp	DRSC06510	1.78e5	1.78e5	2.30e6	2.16e6	inactive
Mctp	DRSC22896	5.66e5	8.83e5	1.82e6	2.82e6	inactive
Mctp	DRSC25505	6.79e5	9.75e5	1.29e6	1.12e6	inactive
Mctp	DRSC28921	5.95e5	4.56e5	1.20e6	1.65e6	inactive
CG13460	DRSC10007	1.39e5	1.44e5	1.56e6	1.19e6	inactive
nolo	DRSC03705	1.23e6	1.14e6	2.85e6	2.25e6	inactive
nolo	DRSC03719	2.76e5	2.33e5	2.16e6	1.50e6	inactive
nolo	DRSC03720	2.25e5	2.90e5	1.63e6	1.68e6	inactive
CG16824	DRSC02525	2.11e5	1.92e5	1.02e6	1.16e6	inactive
tgy	DRSC20045	3.12e5	1.74e5	1.09e6	5.95e5	inactive
